No constants are given. Whether binding was seen depends on the method and setting. In cells and extracts the contact can be indirect. A yes stands for co-enrichment or nearness to the bait. Other partners may have been found.

In this assay the target is T1, UBE2J1 overexpressed from lentivirus in DLD-1 cells (UniProt Q9Y385).
T1 sequence: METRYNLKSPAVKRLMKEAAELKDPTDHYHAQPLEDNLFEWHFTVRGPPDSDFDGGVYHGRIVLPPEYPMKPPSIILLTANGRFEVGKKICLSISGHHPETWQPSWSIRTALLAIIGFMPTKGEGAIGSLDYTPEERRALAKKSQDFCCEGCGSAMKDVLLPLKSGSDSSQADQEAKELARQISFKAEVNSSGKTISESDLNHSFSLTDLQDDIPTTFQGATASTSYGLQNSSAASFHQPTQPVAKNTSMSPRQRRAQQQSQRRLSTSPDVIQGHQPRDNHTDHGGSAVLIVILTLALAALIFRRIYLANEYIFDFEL
Description: affinity purification with mass spectrometry; immunoprecipitation of UBE2J1 against IgG control from lysate of DLD-1 cells transfected with UBE2J1 overexpression lentivirus; silver staining and mass spectrometry.

Take “TRIM25 (RING-type E3 ubiquitin ligase), endogenous (from UniProt Q14258 1-630) (enzyme)”: the binding result is “binds”.

For the origin of these results see publication PMC9957728.
